# Assay results taken from the supplement of paper PMC8728848.
# The other results are listed elsewhere or left out.
# Columns and labels:
# Experiment in all cases: glycan array binding signal (z-score within array); higher = stronger binding
# Conditions in all cases: glycan notation: IUPAC condensed, linker removed
# [1] = target: Neu5Ac(a2-3)Gal(b1-3)[Fuc(a1-4)]GlcNAc
# Procedure, shortened: (§1)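 Glycan array data came from 3228 arrays in the Consortium for Functional Glycomics database, and only arrays with an available protein sequence were kept. Glycan names were put into IUPAC-condensed notation, and columns mapping to the same glycan were averaged. The binding signal is a within-array Z-score, averaged across arrays of one protein sequence run at different concentrations or buffers and across linkers. A negative Z-score can be read as non-binding.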
# [2] = target: Neu5Ac(a2-3)Gal(b1-3)[Fuc(a1-4)]GlcNAc(b1-3)Gal(b1-3)[Fuc(a1-4)]GlcNAc
# Procedure, shortened: as §1
# [3] = target: Neu5Ac(a2-3)Gal(b1-3)[Fuc(a1-4)]GlcNAc(b1-3)Gal(b1-4)[Fuc(a1-3)]GlcNAc
# Procedure, shortened: as §1
# [4] = target: Neu5Ac(a2-3)Gal(b1-3)[GlcNAc(b1-6)]GalNAc
# Procedure, shortened: as §1
# [5] = target: Neu5Ac(a2-3)Gal(b1-3)[Neu5Ac(a2-6)]GalNAc
# Procedure, shortened: as §1
# [6] = target: Neu5Ac(a2-3)Gal(b1-3)[Neu5Ac(a2-6)]GlcNAc(b1-3)[Fuc(a1-3)[Gal(b1-4)]GlcNAc(b1-6)]Gal(b1-4)Glc
# Procedure, shortened: as §1
# [7] = target: Neu5Ac(a2-3)Gal(b1-3)]Neu5Ac(a2-3)Gal(b1-4)]GlcNAc
# Procedure, shortened: as §1
# Neu5Ac(a2-3)Gal(b1-4)Glc = target: Neu5Ac(a2-3)Gal(b1-4)Glc
# Procedure, shortened: as §1
# [8] = target: Neu5Ac(a2-3)Gal(b1-4)GlcNAc
# Procedure, shortened: as §1
# [9] = target: Neu5Ac(a2-3)Gal(b1-4)GlcNAc(b1-2)Man
# Procedure, shortened: as §1
# [10] = target: Neu5Ac(a2-3)Gal(b1-4)GlcNAc(b1-2)Man(a1-3)[GlcNAc(b1-4)][Neu5Ac(a2-3)Gal(b1-4)GlcNAc(b1-2)Man(a1-6)]Man(b1-4)GlcNAc(b1-4)GlcNAc
# Procedure, shortened: as §1
# [11] = target: Neu5Ac(a2-3)Gal(b1-4)GlcNAc(b1-2)Man(a1-3)[Neu5Ac(a2-3)Gal(b1-4)GlcNAc(b1-2)Man(a1-6)]Man(b1-4)GlcNAc(b1-4)GlcNAc
# Procedure, shortened: as §1
# [12] = target: Neu5Ac(a2-3)Gal(b1-4)GlcNAc(b1-2)Man(a1-3)[Neu5Ac(a2-3)Gal(b1-4)GlcNAc(b1-2)Man(a1-6)]Man(b1-4)GlcNAc(b1-4)[Fuc(a1-6)]GlcNAc
# Procedure, shortened: as §1
# [13] = target: Neu5Ac(a2-3)Gal(b1-4)GlcNAc(b1-2)Man(a1-3)[Neu5Ac(a2-6)Gal(b1-4)GlcNAc(b1-2)Man(a1-6)]Man(b1-4)GlcNAc(b1-4)GlcNAc
# Procedure, shortened: as §1
# [14] = target: Neu5Ac(a2-3)Gal(b1-4)GlcNAc(b1-2)[Neu5Ac(a2-3)Gal(b1-4)GlcNAc(b1-4)]Man(a1-3)[GlcNAc(b1-4)][Neu5Ac(a2-3)Gal(b1-4)GlcNAc(b1-2)[Neu5Ac(a2-3)Gal(b1-4)GlcNAc(b1-6)]Man(a1-6)]Man(b1-4)GlcNAc(b1-4)GlcNAc
# Procedure, shortened: as §1
# [15] = target: Neu5Ac(a2-3)Gal(b1-4)GlcNAc(b1-2)[Neu5Ac(a2-3)Gal(b1-4)GlcNAc(b1-4)]Man(a1-3)[GlcNAc(b1-4)][Neu5Ac(a2-3)Gal(b1-4)GlcNAc(b1-4)Man(a1-6)]Man(b1-4)GlcNAc(b1-4)GlcNAc
# Procedure, shortened: as §1
# [16] = target: Neu5Ac(a2-3)Gal(b1-4)GlcNAc(b1-2)[Neu5Ac(a2-3)Gal(b1-4)GlcNAc(b1-6)]Man(a1-6)[Neu5Ac(a2-3)Gal(b1-4)GlcNAc(b1-2)Man(a1-3)]Man(b1-4)GlcNAc(b1-4)GlcNAc
# Procedure, shortened: as §1
# [17] = target: Neu5Ac(a2-3)Gal(b1-4)GlcNAc(b1-2)[Neu5Ac(a2-3)Gal(b1-4)GlcNAc(b1-6)]Man(a1-6)[Neu5Ac(a2-3)Gal(b1-4)GlcNAc(b1-2)Man(a1-3)][GlcNAc(b1-4)]Man(b1-4)GlcNAc(b1-4)GlcNAc
# Procedure, shortened: as §1
# [18] = target: Neu5Ac(a2-3)Gal(b1-4)GlcNAc(b1-3)Gal
# Procedure, shortened: as §1
# [19] = target: Neu5Ac(a2-3)Gal(b1-4)GlcNAc(b1-3)Gal(b1-3)GlcNAc
# Procedure, shortened: as §1
# [20] = target: Neu5Ac(a2-3)Gal(b1-4)GlcNAc(b1-3)Gal(b1-4)GlcNAc
# Procedure, shortened: as §1
# [21] = target: Neu5Ac(a2-3)Gal(b1-4)GlcNAc(b1-3)Gal(b1-4)GlcNAc(b1-2)Man(a1-3)[Neu5Ac(a2-3)Gal(b1-4)GlcNAc(b1-3)Gal(b1-4)GlcNAc(b1-2)Man(a1-6)]Man(b1-4)GlcNAc(b1-4)GlcNAc
# Procedure, shortened: as §1
# [22] = target: Neu5Ac(a2-3)Gal(b1-4)GlcNAc(b1-3)Gal(b1-4)GlcNAc(b1-3)Gal(b1-4)GlcNAc
# Procedure, shortened: as §1
# [23] = target: Neu5Ac(a2-3)Gal(b1-4)GlcNAc(b1-3)Gal(b1-4)GlcNAc(b1-3)Gal(b1-4)GlcNAc(b1-2)Man(a1-3)[Neu5Ac(a2-3)Gal(b1-4)GlcNAc(b1-3)Gal(b1-4)GlcNAc(b1-3)Gal(b1-4)GlcNAc(b1-2)Man(a1-6)]GalNAc
# Procedure, shortened: as §1
# [24] = target: Neu5Ac(a2-3)Gal(b1-4)GlcNAc(b1-3)Gal(b1-4)GlcNAc(b1-3)GalNAc
# Procedure, shortened: as §1
# [25] = target: Neu5Ac(a2-3)Gal(b1-4)GlcNAc(b1-3)Gal(b1-4)GlcNAc(b1-3)[Neu5Ac(a2-3)Gal(b1-4)GlcNAc(b1-3)Gal(b1-4)GlcNAc(b1-6)]GalNAc
# Procedure, shortened: as §1
# [26] = target: Neu5Ac(a2-3)Gal(b1-4)GlcNAc(b1-3)Gal(b1-4)GlcNAc(b1-6)[Gal(b1-3)]GalNAc
# Procedure, shortened: as §1
# [27] = target: Neu5Ac(a2-3)Gal(b1-4)GlcNAc(b1-3)Gal(b1-4)[Fuc(a1-3)]GlcNAc
# Procedure, shortened: as §1
# [28] = target: Neu5Ac(a2-3)Gal(b1-4)GlcNAc(b1-3)GalNAc
# Procedure, shortened: as §1
# [29] = target: Neu5Ac(a2-3)Gal(b1-4)GlcNAc(b1-3)[Neu5Ac(a2-3)Gal(b1-4)GlcNAc(b1-6)]GalNAc
# Procedure, shortened: as §1
# [30] = target: Neu5Ac(a2-3)Gal(b1-4)GlcNAc(b1-6)GalNAc
# Procedure, shortened: as §1
# [31] = target: Neu5Ac(a2-3)Gal(b1-4)GlcNAc(b1-6)[Gal(b1-3)]GalNAc
# Procedure, shortened: as §1
# [32] = target: Neu5Ac(a2-3)Gal(b1-4)GlcNAc(b1-6)[Neu5Ac(a2-3)Gal(b1-3)]GalNAc
# Procedure, shortened: as §1
# [33] = target: Neu5Ac(a2-3)Gal(b1-4)GlcNAc6S
# Procedure, shortened: as §1
# [34] = target: Neu5Ac(a2-3)Gal(b1-4)[Fuc(a1-3)]GlcNAc
# Procedure, shortened: as §1
# [35] = target: Neu5Ac(a2-3)Gal(b1-4)[Fuc(a1-3)]GlcNAc(b1-2)Man
# Procedure, shortened: as §1
# [36] = target: Neu5Ac(a2-3)Gal(b1-4)[Fuc(a1-3)]GlcNAc(b1-3)Gal
# Procedure, shortened: as §1
# [37] = target: Neu5Ac(a2-3)Gal(b1-4)[Fuc(a1-3)]GlcNAc(b1-3)Gal(b1-4)GlcNAc
# Procedure, shortened: as §1
# [38] = target: Neu5Ac(a2-3)Gal(b1-4)[Fuc(a1-3)]GlcNAc(b1-3)Gal(b1-4)[Fuc(a1-3)]GlcNAc(b1-3)Gal(b1-4)[Fuc(a1-3)]GlcNAc
# Procedure, shortened: as §1
# [39] = target: Neu5Ac(a2-3)Gal(b1-4)[Fuc(a1-3)]GlcNAc(b1-3)GalNAc
# Procedure, shortened: as §1
# [40] = target: Neu5Ac(a2-3)Gal(b1-4)[Fuc(a1-3)]GlcNAc(b1-6)[Gal(b1-3)]GalNAc
# Procedure, shortened: as §1
# [41] = target: Neu5Ac(a2-3)Gal(b1-4)[Fuc(a1-3)]GlcNAc(b1-6)[Neu5Ac(a2-3)Gal(b1-3)]GalNAc
# Procedure, shortened: as §1
# [42] = target: Neu5Ac(a2-3)Gal(b1-4)[Fuc(a1-3)]GlcNAc6S
# Procedure, shortened: as §1
# [43] = target: Neu5Ac(a2-3)Gal6S(b1-4)GlcNAc
# Procedure, shortened: as §1
# [44] = target: Neu5Ac(a2-3)Gal6S(b1-4)[Fuc(a1-3)]GlcNAc
# Procedure, shortened: as §1
binder,measurement,setting,value
"AntigenI/IIC123 (Streptococcus mutans), C9E3B4 (protein) MASMTGGQQMGRIHFHYFKLAVQPQVNKEIRNNNDINIDRTLVAKQSVVKFQLKTADLPAGRDETTSFVLVDPLPSGYQFNPEATKAASPGFDVTYDNATNTVTFKATAATLATFNADLTKSVATIYPTVVGQVLNDGATYKNNFTLTVNDAYGIKSNVVRVTTPGKPNDPDNPNNNYIKPTKVNKNENGVVIDGKTVLAGSTNYYELTWDLDQYKNDRSSADTIQKGFYYVDDYPEEALELRQDLVKITDANGNEVTGVSVDNYTNLEAAPQEIRDVLSKAGIRPKGAFQIFRADNPREFYDTYVKTGIDLKIVSPMVVKKQMGQTGGSYENQAYQIDFGNGYASNIIINNVPKINPKKDVTLTLDPADTNNVDGQTIPLNTVFNYRLIGGIIPADHSEELFEYNFYDDYDQTGDHYTGQYKVFAKVDITFKDGSIIKSGAELTQYTTAEVDTAKGAITIKFKEAFLRSVSIDSAFQAESYIQMKRIAVGTFENTYINTVNGVTYSSLEHHHHHH",glycan array binding signal (z-score),[1],0.144
same,glycan array binding signal (z-score),[2],1.19
same,glycan array binding signal (z-score),[3],0.615
same,glycan array binding signal (z-score),[4],-0.693
same,glycan array binding signal (z-score),[5],0.477
same,glycan array binding signal (z-score),[6],-1.02
same,glycan array binding signal (z-score),[7],-0.663
same,glycan array binding signal (z-score),Neu5Ac(a2-3)Gal(b1-4)Glc,-0.698
same,glycan array binding signal (z-score),[8],-0.319
same,glycan array binding signal (z-score),[9],0.297
same,glycan array binding signal (z-score),[10],0.168
same,glycan array binding signal (z-score),[11],-1.13
same,glycan array binding signal (z-score),[12],1.92
same,glycan array binding signal (z-score),[13],-0.814
same,glycan array binding signal (z-score),[14],-0.712
same,glycan array binding signal (z-score),[15],-0.575
same,glycan array binding signal (z-score),[16],0.84
same,glycan array binding signal (z-score),[17],-1.1
same,glycan array binding signal (z-score),[18],-0.747
same,glycan array binding signal (z-score),[19],-0.354
same,glycan array binding signal (z-score),[20],0.843
same,glycan array binding signal (z-score),[21],-0.924
same,glycan array binding signal (z-score),[22],-0.469
same,glycan array binding signal (z-score),[23],2.55
same,glycan array binding signal (z-score),[24],-0.69
same,glycan array binding signal (z-score),[25],-0.714
same,glycan array binding signal (z-score),[26],-1.04
same,glycan array binding signal (z-score),[27],-0.47
same,glycan array binding signal (z-score),[28],-0.658
same,glycan array binding signal (z-score),[29],1.08
same,glycan array binding signal (z-score),[30],-0.138
same,glycan array binding signal (z-score),[31],-0.803
same,glycan array binding signal (z-score),[32],-0.22
same,glycan array binding signal (z-score),[33],-0.553
same,glycan array binding signal (z-score),[34],-0.482
same,glycan array binding signal (z-score),[35],-0.89
same,glycan array binding signal (z-score),[36],-0.18
same,glycan array binding signal (z-score),[37],0.457
same,glycan array binding signal (z-score),[38],-0.857
same,glycan array binding signal (z-score),[39],2.69
same,glycan array binding signal (z-score),[40],2.24
same,glycan array binding signal (z-score),[41],0.678
same,glycan array binding signal (z-score),[42],-0.3
same,glycan array binding signal (z-score),[43],-0.218
same,glycan array binding signal (z-score),[44],-1.48
